Publication PMC4313621, “Hydrophobic mismatch sorts SNARE proteins into distinct membrane domains” (Nature Communications, 2015)
Results are given in words; binding and its absence hold for the method and conditions named. Some entries that bind do so weakly or less than the wild type.

Protein sequences, listed by entry. Tags and fused reporters are not part of them. Residues count along the entry.
UniProt P32851, residues 266-288: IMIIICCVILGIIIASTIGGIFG

Legend:
[1] = target: Syntaxin 1 TMD (residues 266-288; sx-1TM) (Rattus norvegicus) (UniProt P32851); assay: FRET or BRET; labelled TMD peptides in liposomes of C18:1 PC or an equimolar mixture of C14:1, C16:1, C18:1 and C20:1 PC; all with 1 mol% PI(4,5)P2 and 30 mol% cholesterol; both purified
[2] = target: Syntaxin 1 TMD (residues 266-288; sx-1TM) (Rattus norvegicus) (UniProt P32851); assay: FRET or BRET; sx-1TM-Rhodamine Red (donor) and sx-4TM-Atto647N (acceptor) in LUVs of porcine brain PC without or with 1 mol% PI(4,5)P2 and/or 30 mol% cholesterol; protein-to-lipid 1:1000; both purified

Q: Which results are given for ALENQKKARKKKVLIAICVSITVVLLAVIIGVTVVG (peptide, UniProt Q12846 262-297, Rhodamine Red or Atto647N coupled to the N-terminus) [Syntaxin 4 TMD (residues 262-297; sx-4TM)]?
A: binding [1]: binds; binding [2]: binds
